No constants are given. Whether binding was seen depends on the method and setting. Binding seen in cells or lysates may run through a third protein. Some binding calls cover weakened binding; strength is not graded here.
Target: YFP-tagged Solo (WT) (UniProt Q8TER5)
Assay: co-IP

mCherry-tagged wild-type (WT) PDZ-RhoGEF (from UniProt O15085 1-1522)
binding: binds

B1: mCherry-PRG deletion mutant (N-170) (domain or fragment, UniProt O15085 1-170)
chain: MSVRLPQSIDRLSSLSSLGDSAPERKSPSHHRQPSDASETTGLVQRCVIIQKDQHGFGFTVSGDRIVLVQSVRPGGAAMKAGVKEGDRIIKVNGTMVTNSSHLEVVKLIKSGAYVALTLLGSSPSSMGISGLQQDPSPAGAPRITSVIPSPPPPPPLPPPQRITGPKPLQ
binding: binds

Reference: doi:10.1101/2023.11.08.566199
